These are yes or no findings as the source states them, for the method shown. In cells and extracts the contact can be indirect. Some results given as binding are weak or reduced against the parent protein; the word gives no strength.
Experiments:
[1] = molecular target: HA-tagged GJA1 (gap junction protein A1, wild type) (human) (UniProt P17302); assay: co-IP; Cos7 cells co-transfected with HA- and FLAG-tagged constructs; lysate in modified RIPA buffer (1% NP40, 150 mM NaCl, 0.05% deoxycholate); immunoprecipitation with anti-HA antibody and protein A-Sepharose at 4°C, washes with 500 mM NaCl; western blot (n = 3)
[2] = molecular target: HA-tagged GJB4-WT (human) (UniProt Q9NTQ9); assay: as above

Protein sequences, listed by entry. Tags and fused reporters are not part of them. Lines headed by an entry give the natural chain unless they say otherwise; changes in a name come on top.
UniProt P17302: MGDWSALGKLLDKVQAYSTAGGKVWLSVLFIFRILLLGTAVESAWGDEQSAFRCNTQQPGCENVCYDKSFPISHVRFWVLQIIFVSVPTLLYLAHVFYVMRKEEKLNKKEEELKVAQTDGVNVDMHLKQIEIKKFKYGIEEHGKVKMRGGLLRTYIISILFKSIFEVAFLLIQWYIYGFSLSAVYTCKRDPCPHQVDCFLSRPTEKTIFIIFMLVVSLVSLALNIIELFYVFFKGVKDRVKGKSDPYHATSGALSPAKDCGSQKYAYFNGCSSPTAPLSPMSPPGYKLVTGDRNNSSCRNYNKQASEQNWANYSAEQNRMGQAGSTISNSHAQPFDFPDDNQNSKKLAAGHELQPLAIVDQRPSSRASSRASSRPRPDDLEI
UniProt Q9NTQ9: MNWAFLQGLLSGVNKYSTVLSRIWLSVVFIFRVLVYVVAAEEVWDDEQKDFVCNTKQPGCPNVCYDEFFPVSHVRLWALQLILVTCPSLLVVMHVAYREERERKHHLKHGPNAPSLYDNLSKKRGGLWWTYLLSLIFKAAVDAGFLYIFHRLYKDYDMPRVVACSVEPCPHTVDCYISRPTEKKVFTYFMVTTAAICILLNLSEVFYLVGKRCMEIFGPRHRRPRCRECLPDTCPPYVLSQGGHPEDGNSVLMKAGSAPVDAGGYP

Row | binding [1] | binding [2] | Substance
1 | binds | binds | FLAG-tagged GJB4-WT (gap junction protein beta 4, wild type) (from UniProt Q9NTQ9 1-266)
2 | binds | binds | FLAG-tagged GJB4-E204A (from UniProt Q9NTQ9 1-266)
